Results published in article PMC12040169 (PLOS Biology, 2025).
The other results are listed elsewhere or left out.

These molecules were tested on T1, CTL2-GFP (C. trachomatis L2/434/Bu, GFP-expressing). Conditions: bulk GFP, single well; 28.5 h, 10 µM; inhibitor.
T1 construct: L2/434/Bu, GFP-expressing
Set-up: species or system HeLa; Intracellular C. trachomatis growth in HeLa cells, bulk GFP fluorescence relative to DMSO

Row | Compound | % of control remaining
1 | CS(=O)(=O)N1CCC(C(=O)NC(c2ccccc2)c2ccccc2)CC1 [CBK269801] | 136.846%
2 | COc1ccc([C@@]23CC[C@H](NC(=O)c4[nH]cnc4C)C[C@@H]2N(C)CC3)cc1OC [CBK038097] | 110.629%
3 | Nc1ccc(-c2cn3ccnc3c(NCC3CC3)n2)cc1 [CBK066677] | 218.324%
4 | NNC(=O)COc1ccc(Cl)cc1Cl [CBK261671] | 126.475%
5 | Cc1ccc(S(=O)(=O)N/N=C/C=C/c2ccc(N(C)C)cc2)cc1 [CBK265078] | 116.021%
6 | Cc1ccc(-c2nc3ccccc3c(=O)o2)cc1C [CBK288137] | 114.822%
7 | Cn1c(SCC(=O)Nc2ccc(N3CCOCC3)c(Cl)c2)nnc1-c1ccc(N)cc1 [CBK265777] | 134.51%
8 | COc1ccc(Sc2cc3n(c(=O)n2)CCc2cc(OC)c(OC)cc2-3)cc1 [CBK291186] | 128.916%
9 | COc1ccc2[nH]c3c(c2c1)CCN(C(=O)CNCC(=O)O)C31CCN(CCOc2ccccc2)C1 (centres unmarked) [CBK082782T] | 117.679%
10 | O=C(O)C1CCN(C(=O)CCC2CCCCC2)CC1 [CBK286804] | 148.306%
11 | OCCOc1cccc(OCCOc2nccnc2N2CCNCC2)c1 [CBK014339G] | 125.638%
12 | O=C(NC1CC1)c1cnc2ccc(F)cc2c1O [CBK307629] | 118.219%
13 | COc1ccc(CCN2C(=O)CC(N3CCN(c4ccccc4)CC3)C2=O)cc1OC (centres unmarked) [CBK262354] | 112.011%
14 | COc1cccc2sc(Nc3nnc(-c4cccs4)o3)nc12 [CBK287473] | 85.6397%
15 | COc1ccccc1NC(=O)C1=C(C)Nc2nnnn2C1c1ccc(OC)c([N+](=O)[O-])c1 (centres unmarked) [CBK293954] | 155.574%
16 | Cc1cc(C)c2c(N)c(C(=O)Nc3ccc(C(=O)O)cc3)sc2n1 [CBK300515] | 151.709%
17 | O=C(NNc1ccc([N+](=O)[O-])cc1)c1cccs1 [CBK261709] | 104.914%
18 | CCCCN(CC(N)=O)C(=O)c1sc(COc2ccc(Cl)cc2)nc1C [CBK304539] | 90.1798%
19 | COc1ccc(NCC(=O)N/N=C(\C)c2ccccc2O)cc1 [CBK263887] | 113.521%
20 | COCC(=O)N1CC[C@@H]2[C@H]1C(=O)N(c1ccc(OC)cc1)C(=O)N2Cc1ccccc1 [CBK289280] | 126.1%
21 | CC1(C)C(C(=O)O)C1C(=O)NCCc1ccc(O)cc1 (centres unmarked) [CBK286832] | 135.832%
22 | CCc1nc2ccc(C(=O)NCCN3CCOCC3)cn2c1N(C=O)Cc1ccc(OC)cc1 [CBK146625] | 100%
23 | NC(=O)c1ccc(NC(=O)c2cncc(-c3ccc(C(=O)N4CCOCC4)cc3)c2)cc1 [CBK160214] | 99.9842%
24 | CCOC(=O)C1(C2CCCCC2)CCN(C(=O)CC2CCCCC2)CC1 [CBK136919] | 111.393%
25 | Cc1sc2ncn(CC(=O)NCCc3c[nH]cn3)c(=O)c2c1C [CBK304685] | 86.1304%

Row | Compound | % of control remaining
26 | COc1ccc(S(=O)(=O)N2CCN(C(=O)c3ccc(C(C)(C)C)cc3)CC2)cc1 [CBK157251] | 73.6471%
27 | O=C(CC(CN1CCN(Cc2cccnc2)CC1)C(=O)O)Nc1ccc(Cl)cc1 (centres unmarked) [CBK286853] | 134.453%
28 | O=C(O)C1C2CCC(O2)C1C(=O)N1CCN(Cc2ccc(Cl)cc2)CC1 (centres unmarked) [CBK286943] | 101.331%
29 | CCOc1ccccc1NC(=O)CCCC(=O)O [CBK275986] | 98.7218%
30 | O=C(CCC(=O)Nc1ccc(F)cc1)N/N=C/c1ccc(O)cc1O [CBK261766] | 107.588%
31 | Cc1cc(S(=O)(=O)Nc2ccnn2C(C)C)ccc1F [CBK283069] | 71.0791%
32 | CSCCN1CCN(c2nccnc2OC2CCCCC2)CC1 [CBK082843T] | 135.341%
33 | O=C(c1nc2ccccc2s1)C1CCNCC1 [CBK285397] | 106.225%
34 | O=C(O)c1ccc(N2C(=O)CC(N3CCC(Cc4ccccc4)CC3)C2=O)cc1 (centres unmarked) [CBK273484] | 105.038%
35 | Cc1ccc(CCNc2c([N+](=O)[O-])nn(-c3ccc4c(c3)OCCO4)[n+]2[O-])cc1 [CBK268225] | 62.9191%
36 | NC(=O)c1cccc(-c2nc(-c3cccs3)cnc2N)c1 [CBK064117] | 202.956%
37 | O=C1CSC(=O)N1CNc1ccc(Br)cc1 [CBK261819] | 109.413%
38 | COc1cc(-c2cc(N3CCN(Cc4cccnc4)CC3)n3nccc3n2)cc(OC)c1OC [CBK037063] | 138.587%
39 | Cc1cc(N(C)C)nc(SCc2n[nH]c(=S)o2)n1 [CBK006887] | 101.258%
40 | COCCc1noc(CC2CCN(c3ccc(Cl)c(C#N)n3)CC2)n1 [CBK304177] | 77.8722%
41 | O=C1CC[C@@H](NCc2cccs2)[C@H](c2cc(F)cc(F)c2)N1 [CBK283129] | 5.068%
42 | COc1ccc2c(c1)CCC1CN(C)N=C21 (centres unmarked) [CBK010890] | 111.459%
43 | COCCn1nc(C(=O)N2CCCc3ccccc32)ccc1=O [CBK305590] | 143.846%
44 | Cc1nc(C)n(CC2CCCN(Cc3cc(=O)n4ccccc4n3)C2)n1 (centres unmarked) [CBK304135] | 106.259%
45 | Cc1cn(CC(=O)N2CCC3(CCN(C(=O)Cc4c[nH]c5ccccc45)C3)C2)c(=O)[nH]c1=O (centres unmarked) [CBK131445] | 112.989%
46 | CCNC(=O)CNc1cc(C#N)ccc1C(F)(F)F [CBK306432] | 80.3789%
47 | CC1(O)CCCN(C(=O)c2c[nH]nc2-c2cc3ccccc3o2)C1 (centres unmarked) [CBK305555] | 123.012%
48 | Cc1cc(NS(=O)(=O)N2CCCCC2)no1 [CBK269947] | 124.036%
49 | COC(=O)c1cn([C@H]2CO[C@H]3[C@@H]2OC[C@@H]3NC(=O)Nc2ccc(OC)cc2)nn1 [CBK289500] | 108.189%
50 | CCOc1ccc(S(=O)(=O)N2CCCN(CC(C)C)CC2)c2cccnc12 [CBK062758] | 94.1754%

4 records drawn at random from those above:
Row | Compound | % of control remaining
40 | COCCc1noc(CC2CCN(c3ccc(Cl)c(C#N)n3)CC2)n1 [CBK304177] | 77.8722%
38 | COc1cc(-c2cc(N3CCN(Cc4cccnc4)CC3)n3nccc3n2)cc(OC)c1OC [CBK037063] | 138.587%
26 | COc1ccc(S(=O)(=O)N2CCN(C(=O)c3ccc(C(C)(C)C)cc3)CC2)cc1 [CBK157251] | 73.6471%
29 | CCOc1ccccc1NC(=O)CCCC(=O)O [CBK275986] | 98.7218%
